For experiment [1], the target named is biotinylated HsCRBN (bls-CRBN), wild type (human) (UniProt Q96SW2). Kind of experiment: AlphaScreen or HTRF.
For experiment [2] the target is unchanged. Kind of experiment: AlphaScreen or HTRF. This is another data set of the same source.

Protein sequences, listed by entry. Tags and fused reporters are not part of them.
UniProt Q96SW2: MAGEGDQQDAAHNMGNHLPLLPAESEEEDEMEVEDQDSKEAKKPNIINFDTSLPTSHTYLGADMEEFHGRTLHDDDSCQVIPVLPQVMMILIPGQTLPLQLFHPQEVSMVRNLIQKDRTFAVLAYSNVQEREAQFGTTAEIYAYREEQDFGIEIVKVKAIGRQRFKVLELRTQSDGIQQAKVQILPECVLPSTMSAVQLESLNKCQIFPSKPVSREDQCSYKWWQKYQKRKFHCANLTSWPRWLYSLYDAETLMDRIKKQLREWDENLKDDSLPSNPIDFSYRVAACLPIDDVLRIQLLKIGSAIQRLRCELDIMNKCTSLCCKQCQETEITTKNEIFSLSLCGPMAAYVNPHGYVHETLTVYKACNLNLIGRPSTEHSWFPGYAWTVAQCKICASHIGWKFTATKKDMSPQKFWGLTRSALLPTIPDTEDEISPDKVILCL

Read-outs that look alike come from different tables or passages of the source. Results are given in words; binding and its absence hold for the method and conditions named. Some results given as binding are weak or reduced against the parent protein; the word gives no strength. Sequences can lack the tags named with a protein.

B1: FLAG-GST-ELF5 (protein, UniProt Q9UKW6 1-265)
chain: MPSLPHSHRVMLDSVTHSTFLPNASFCDPLMSWTDLFSNEEYYPAFEHQTACDSYWTSVHPEYWTKRHVWEWLQFCCDQYKLDTNCISFCNFNISGLQLCSMTQEEFVEAAGLCGEYLYFILQNIRTQGYSFFNDAEESKATIKDYADSNCLKTSGIKSQDCHSHSRTSLQSSHLWEFVRDLLLSPEENCGILEWEDREQGIFRVVKSEALAKMWGQRKKNDRMTYEKLSRALRYYYKTGILERVDRRLVYKFGKNAHGWQEDKL
On to B1, for which the binding entry in experiment [1] and in experiment [2] was “binds” each time.

B2: FLAG-GST-HMGB2 (protein, UniProt P26583 1-209)
chain: MGKGDPNKPRGKMSSYAFFVQTCREEHKKKHPDSSVNFAEFSKKCSERWKTMSAKEKSKFEDMAKSDKARYDREMKNYVPPKGDKKGKKKDPNAPKRPPSAFFLFCSEHRPKIKSEHPGLSIGDTAKKLGEMWSEQSAKDKQPYEQKAAKLKEKYEKDIAAYRAKGKSEAGKKGPGRPTGSKKKNEPEDEEEEEEEEDEDEEEEDEDEE
As for B2, the binding entry in experiment [1] and in experiment [2] was “binds” each time.

These data come from article doi:10.1101/2020.02.28.969071.
